{"source": "PubChem BioAssay AID652243, Drosophila RNAi Screening Center – 2013", "purpose": "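Fly regulators of androgen-dependent reporter output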 (primary screen)", "cell system": "Drosophila S2R+ cells", "reagents": "long dsRNA against Drosophila genes", "duration": "72 h (48 h, then 24 h hormone)", "conditions": "synthetic androgen R1881 at 10 nM for 24 h", "measurement": "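Per-well raw luminescence of the androgen-driven firefly reporter and of the Renilla control, two replicates each, without normalisation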", "scale": "firefly reporter light: higher = more light from androgen-responsive reporter; Renilla control light: higher = more constitutive control signal (cell number, transfection)", "hit rule": "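Hit when the log firefly-to-Renilla ratio dropped or increased by a fixed fold versus the mean of GFP or LacZ controls across duplicate plates; lowering cut given as 1.5 and as 3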", "meaning of the calls": "active = hit: reporter lowered or raised; inactive = no hit", "note": "The screen tested about 24,000 reagents; shown is a random part of those with a known target gene and a result. Of all reagents, 246 (1%) are marked active. 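Plates not normalised; calls are printed but the firefly/Renilla ratio behind them is not deposited; fold cut for lowering reported inconsistently.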 Raw values are not corrected between plates. Names joined by + are all predicted targets of the reagent. Not given: the amount of reagent."}
{"Target gene": "alpha-Est6 (GeneID 40902)", "dsRNA": "DRSC12618", "firefly reporter light, replicate 1": 19285, "firefly reporter light, replicate 2": 10522, "Renilla control light, replicate 1": 1.87e5, "Renilla control light, replicate 2": 1.74e5, "activity call": "inactive"}
{"Target gene": "SkpE (GeneID 32997)", "dsRNA": "DRSC19431", "firefly reporter light, replicate 1": 4.45e5, "firefly reporter light, replicate 2": 1.86e5, "Renilla control light, replicate 1": 1.22e6, "Renilla control light, replicate 2": 5.25e5, "activity call": "inactive"}
{"Target gene": "CG43295 (GeneID 12797916)", "dsRNA": "DRSC09416", "firefly reporter light, replicate 1": 8.03e5, "firefly reporter light, replicate 2": 8.47e5, "Renilla control light, replicate 1": 9.96e5, "Renilla control light, replicate 2": 1.08e6, "activity call": "inactive"}
{"Target gene": "Uba1 (GeneID 35998)", "dsRNA": "DRSC07567", "firefly reporter light, replicate 1": 1.21e6, "firefly reporter light, replicate 2": 1.23e6, "Renilla control light, replicate 1": 1.29e6, "Renilla control light, replicate 2": 1.42e6, "activity call": "inactive"}
{"Target gene": "Uba1 (GeneID 35998)", "dsRNA": "DRSC28350", "firefly reporter light, replicate 1": 3.01e5, "firefly reporter light, replicate 2": 5.24e5, "Renilla control light, replicate 1": 9.37e5, "Renilla control light, replicate 2": 1.67e6, "activity call": "inactive"}
{"Target gene": "arg (GeneID 46717)", "dsRNA": "DRSC18737", "firefly reporter light, replicate 1": 1.02e5, "firefly reporter light, replicate 2": 78990, "Renilla control light, replicate 1": 6.09e5, "Renilla control light, replicate 2": 4.70e5, "activity call": "inactive"}
{"Target gene": "arg (GeneID 46717)", "dsRNA": "DRSC29488", "firefly reporter light, replicate 1": 5.48e5, "firefly reporter light, replicate 2": 8.72e5, "Renilla control light, replicate 1": 1.08e6, "Renilla control light, replicate 2": 1.08e6, "activity call": "inactive"}
{"Target gene": "rho (GeneID 38168)", "dsRNA": "DRSC08734", "firefly reporter light, replicate 1": 1.30e5, "firefly reporter light, replicate 2": 1.15e5, "Renilla control light, replicate 1": 1.05e6, "Renilla control light, replicate 2": 1.26e6, "activity call": "inactive"}
{"Target gene": "r-cup (GeneID 33075)", "dsRNA": "DRSC20475", "firefly reporter light, replicate 1": 1.56e5, "firefly reporter light, replicate 2": 1.44e5, "Renilla control light, replicate 1": 6.38e5, "Renilla control light, replicate 2": 4.55e5, "activity call": "inactive"}
{"Target gene": "CG15873 (GeneID 37898)", "dsRNA": "DRSC04277", "firefly reporter light, replicate 1": 3.62e5, "firefly reporter light, replicate 2": 3.88e5, "Renilla control light, replicate 1": 2.31e6, "Renilla control light, replicate 2": 2.45e6, "activity call": "inactive"}
{"Target gene": "ASPP (GeneID 37422)", "dsRNA": "DRSC23069", "firefly reporter light, replicate 1": 9.36e5, "firefly reporter light, replicate 2": 1.06e6, "Renilla control light, replicate 1": 1.46e6, "Renilla control light, replicate 2": 2.07e6, "activity call": "inactive"}
{"Target gene": "CG9288 + CG42375", "dsRNA": "DRSC39267", "activity call": "inactive"}

Looked up above.
For “Renilla control light, replicate 1”, alpha-Est6 (GeneID 40902) [DRSC12618] shows 1.87e5
Under “activity call”, CG9288 + CG42375 [DRSC39267] shows inactive
